For nine molecules, binding results are on record in publication PMC11666741.

Amino acid sequences for entries named in this document (tags omitted).
UniProt Q8S8P5: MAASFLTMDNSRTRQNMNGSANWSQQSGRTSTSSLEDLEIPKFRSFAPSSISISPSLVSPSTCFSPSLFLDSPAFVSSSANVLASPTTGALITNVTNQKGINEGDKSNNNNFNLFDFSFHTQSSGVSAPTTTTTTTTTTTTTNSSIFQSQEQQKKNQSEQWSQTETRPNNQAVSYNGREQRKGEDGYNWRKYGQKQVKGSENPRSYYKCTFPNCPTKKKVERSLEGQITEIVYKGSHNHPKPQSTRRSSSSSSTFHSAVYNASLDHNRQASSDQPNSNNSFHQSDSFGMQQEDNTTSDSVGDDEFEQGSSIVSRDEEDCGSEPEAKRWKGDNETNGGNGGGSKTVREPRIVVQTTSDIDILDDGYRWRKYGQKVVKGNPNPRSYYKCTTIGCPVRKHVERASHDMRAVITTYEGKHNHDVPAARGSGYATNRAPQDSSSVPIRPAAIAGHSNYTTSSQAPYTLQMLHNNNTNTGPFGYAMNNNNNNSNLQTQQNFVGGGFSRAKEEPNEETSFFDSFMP
UniProt Q9C5T4: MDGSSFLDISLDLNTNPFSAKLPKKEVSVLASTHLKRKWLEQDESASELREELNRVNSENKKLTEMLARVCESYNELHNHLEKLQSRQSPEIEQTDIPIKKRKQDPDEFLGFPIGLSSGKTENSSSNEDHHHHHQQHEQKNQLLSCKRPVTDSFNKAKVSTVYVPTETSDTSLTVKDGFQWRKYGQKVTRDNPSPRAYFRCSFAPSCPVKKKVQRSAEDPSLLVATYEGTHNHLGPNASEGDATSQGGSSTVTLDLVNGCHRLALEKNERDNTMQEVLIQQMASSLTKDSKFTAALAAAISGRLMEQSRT
UniProt Q9FYA2: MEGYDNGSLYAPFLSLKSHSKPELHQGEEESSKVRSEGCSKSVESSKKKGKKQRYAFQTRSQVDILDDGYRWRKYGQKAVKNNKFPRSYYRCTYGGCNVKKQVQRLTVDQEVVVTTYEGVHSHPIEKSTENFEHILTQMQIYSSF

Where a chain is given by its changes, count along the chain named. Like-named read-outs stand apart in the source and are kept apart here. No constants are given. Whether binding was seen depends on the method and setting. For some of these results: Binding seen in cells or lysates may run through a third protein. Some binding calls cover weakened binding; strength is not graded here. For some of these results: Sequences can lack the tags named with a protein.

The target in test [1] is T1, VQ1 (VQ motif-containing protein 1), yeast two-hybrid fusion (Arabidopsis thaliana) (UniProt Q1G3U8).
T1 sequence: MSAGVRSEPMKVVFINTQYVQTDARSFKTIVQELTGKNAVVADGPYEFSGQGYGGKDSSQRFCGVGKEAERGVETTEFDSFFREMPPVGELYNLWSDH
The experiment in a line: two-hybrid; Matchmaker Gold mating system: Y2HGold with GAL4-BD baits mated with Y187 with GAL4-AD preys; diploids on SD/QDO (-Ade/-His/-Leu/-Trp); empty BD or AD clones as controls.

The target in test [2] is T2, VQ10 (VQ motif-containing protein 10), yeast two-hybrid fusion (Arabidopsis thaliana) (UniProt Q8VYI5).
T2 sequence: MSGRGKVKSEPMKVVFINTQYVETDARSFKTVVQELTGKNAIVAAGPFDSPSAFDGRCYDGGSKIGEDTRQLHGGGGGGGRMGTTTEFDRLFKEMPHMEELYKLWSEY
Described as above.

In test [3] the target is T1, VQ1 (VQ motif-containing protein 1), yeast two-hybrid fusion (Arabidopsis thaliana). Described as above. The source holds these as a separate data set.
For test [4], the target named is WRKY33 transcription factor, yeast two-hybrid fusion (Arabidopsis thaliana) (UniProt Q8S8P5). The description is as above.
Test [5] deals with T3, DXS-GFP (1-deoxy-D-xylulose-5-phosphate synthase fused to GFP) (Arabidopsis thaliana) (UniProt Q38854).
T3 sequence: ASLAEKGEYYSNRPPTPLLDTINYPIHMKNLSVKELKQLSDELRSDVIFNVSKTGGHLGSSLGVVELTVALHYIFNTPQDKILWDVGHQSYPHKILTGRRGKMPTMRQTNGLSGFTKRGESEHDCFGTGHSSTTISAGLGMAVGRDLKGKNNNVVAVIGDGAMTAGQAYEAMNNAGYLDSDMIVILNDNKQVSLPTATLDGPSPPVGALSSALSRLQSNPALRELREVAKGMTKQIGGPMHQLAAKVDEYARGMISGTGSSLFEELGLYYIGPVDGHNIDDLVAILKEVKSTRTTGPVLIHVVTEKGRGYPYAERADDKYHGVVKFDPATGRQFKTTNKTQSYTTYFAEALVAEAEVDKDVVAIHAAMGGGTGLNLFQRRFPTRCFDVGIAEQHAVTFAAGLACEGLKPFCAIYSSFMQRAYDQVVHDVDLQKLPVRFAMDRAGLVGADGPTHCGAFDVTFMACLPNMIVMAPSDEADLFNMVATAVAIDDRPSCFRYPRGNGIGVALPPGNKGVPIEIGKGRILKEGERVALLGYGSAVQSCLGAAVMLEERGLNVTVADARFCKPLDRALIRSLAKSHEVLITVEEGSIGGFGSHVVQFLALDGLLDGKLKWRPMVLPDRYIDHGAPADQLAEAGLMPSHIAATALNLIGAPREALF
As to the kind of experiment: co-IP; N. benthamiana leaves co-agroinfiltrated; total protein extract (50 mM Tris-HCl pH 7.5, 150 mM NaCl, 10% glycerol, 0.15% Nonidet P-40; 0.5 mM, 0.05 mM or 5 mM DTT); IP of DXS-GFP with GFP-Trap magnetic beads; blot with anti-HA.

Test [6] has as its target 3xHA-VQ1 (Arabidopsis thaliana) (UniProt Q1G3U8). The experiment in a line: Western blot of extracts and immunoprecipitates (bands of oligomers, dimers and monomers, sensitive to DTT); N. benthamiana extracts and IPs prepared at the indicated DTT (0.05 to 5 mM); blots with anti-GFP or anti-HA. A general note: Immunoblotting shows a protein as a band on a membrane.
In test [7] the target is T2, VQ10 (VQ motif-containing protein 10), yeast two-hybrid fusion (Arabidopsis thaliana). The experiment in a line: two-hybrid; Matchmaker Gold mating system: Y2HGold with GAL4-BD baits mated with Y187 with GAL4-AD preys; diploids on SD/QDO (-Ade/-His/-Leu/-Trp); empty BD or AD clones as controls. This is another data set of the same source.
In test [8] the target is 3xHA-VQ10 (Arabidopsis thaliana) (UniProt Q8VYI5). As to the kind of experiment: Western blot of extracts and immunoprecipitates (bands of oligomers, dimers and monomers, sensitive to DTT); N. benthamiana extracts and IPs prepared at the indicated DTT (0.05 to 5 mM); blots with anti-GFP or anti-HA.
Test [9] has as its target T3, DXS-GFP (1-deoxy-D-xylulose-5-phosphate synthase fused to GFP) (Arabidopsis thaliana). The description is as above.
Test [10] has as its target T4, VQ1-RFP (Arabidopsis thaliana) (UniProt Q1G3U8).
T4 sequence: T1 sequence
As to the kind of experiment: co-IP; N. benthamiana leaves co-agroinfiltrated; total protein extract with 0.5 mM DTT; IP of VQ-RFP with RFP-Trap Magnetic Agarose; blot with anti-GFP.

Test [11] concerns the target T5, VQ10-RFP (Arabidopsis thaliana) (UniProt Q8VYI5).
T5 sequence: T2 sequence
The description is as above.

Consider “WRKY18 transcription factor, yeast two-hybrid fusion (from UniProt Q9C5T4 1-310)”, for which the binding entry in test [1] and in test [2] was “binds weakly” each time.

For the molecule “WRKY75 transcription factor, yeast two-hybrid fusion (from UniProt Q9FYA2 1-145)”, the binding result in test [1] and in test [2] was “binds” each time.

B1: VQ1 (VQ motif-containing protein 1), yeast two-hybrid fusion (protein, UniProt Q1G3U8 1-98)
chain: T1 sequence
With B1, the binding entry in [3] and in [4] was “binds” throughout.

B2: 3xHA-VQ1 (protein, UniProt Q1G3U8 1-98)
chain: T1 sequence
As for B2, the binding result in [5] and in test [6] was “binds” each time.

B3: VQ10 (VQ motif-containing protein 10), yeast two-hybrid fusion (protein, UniProt Q8VYI5 1-108)
chain: T2 sequence
For B3, the binding entry in test [3], in [7] and in test [4] was “binds” in each case.

B4: 3xHA-VQ10 (protein, UniProt Q8VYI5 1-108)
chain: T2 sequence
With B4, the binding entry in test [5] and in [8] was “binds” in each case.

B5: HA-VQ10C58S (protein, UniProt Q8VYI5 1-108)
chain: T2 sequence with C58S
Regarding B5, in test [5], the binding result is “binds”.

B6: WRKY40 transcription factor, yeast two-hybrid fusion (protein, UniProt Q9SAH7 1-302)
chain: MDQYSSSLVDTSLDLTIGVTRMRVEEDPPTSALVEELNRVSAENKKLSEMLTLMCDNYNVLRKQLMEYVNKSNITERDQISPPKKRKSPAREDAFSCAVIGGVSESSSTDQDEYLCKKQREETVVKEKVSRVYYKTEASDTTLVVKDGYQWRKYGQKVTRDNPSPRAYFKCACAPSCSVKKKVQRSVEDQSVLVATYEGEHNHPMPSQIDSNNGLNRHISHGGSASTPVAANRRSSLTVPVTTVDMIESKKVTSPTSRIDFPQVQKLLVEQMASSLTKDPNFTAALAAAVTGKLYQQNHTEK
Turning to B6, the binding result in test [3] and in test [7] was “binds” throughout.

B7: DXS-GFP (1-deoxy-D-xylulose-5-phosphate synthase fused to GFP) (enzyme, UniProt Q38854 59-717)
chain: T3 sequence
With B7, the binding result in test [9], in test [10] and in [11] was “binds” throughout.
